Data as given in PubChem BioAssay AID504784 (Drosophila RNAi Screening Center, 2011)

- Purpose: 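Genome-wide knock-down for genes giving too much or too little stored lipid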 (primary screen)
- Cells: Drosophila Kc167 embryonic cells
- Reagent: long dsRNA against Drosophila genes, about 250 ng dsRNA per well
- Time to read-out: 4 days
- Challenge: cells fed 400 µM oleic acid bound to BSA
- Read-out: 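Cells imaged and segmented; ratio of lipid droplet area to nuclear area, log-transformed, then normalised as a B-score over the screen; higher means more stored lipid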
- Reading the numbers: droplet/nuclear area B-score: higher = more stored lipid (overstorage)
In all, the deposit lists about 17,000 reagents; this is an unselected part of those that have a named target and a result. 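Each column is one replicate's B-score; the combined score over replicates was not deposited, so single values may mislead.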 The numbers tell different reagents against one gene apart. Reagent sequences are not shown.

For Non2 the deposit lists droplet/nuclear area B-score, replicate 1 = 1.22; droplet/nuclear area B-score, replicate 2 = 0.0678.
CG5561 showed droplet/nuclear area B-score, replicate 1 = 0.131; droplet/nuclear area B-score, replicate 2 = -4.01.
For dnd the deposit lists droplet/nuclear area B-score, replicate 1 = -1.13; droplet/nuclear area B-score, replicate 2 = -0.587.
For CG12209, the entry reads droplet/nuclear area B-score, replicate 1 = -0.736; droplet/nuclear area B-score, replicate 2 = 0.0506.
After knock-down of CG33299 the results were droplet/nuclear area B-score, replicate 1 = 0.576; droplet/nuclear area B-score, replicate 2 = 2.
CG5276 gave droplet/nuclear area B-score, replicate 1 = -0.844; droplet/nuclear area B-score, replicate 2 = -0.836.
prd1 showed droplet/nuclear area B-score, replicate 1 = -0.132; droplet/nuclear area B-score, replicate 2 = -0.0884.
shakB #1 gave droplet/nuclear area B-score, replicate 1 = -1.14; droplet/nuclear area B-score, replicate 2 = -0.942.
shakB #2 gave droplet/nuclear area B-score, replicate 1 = 0.771; droplet/nuclear area B-score, replicate 2 = 0.588.
Against CG11836, the entry reads droplet/nuclear area B-score, replicate 1 = 0.57; droplet/nuclear area B-score, replicate 2 = -0.669.
For PpV #1, the values are droplet/nuclear area B-score, replicate 1 = -1.25; droplet/nuclear area B-score, replicate 2 = -1.2.
Against PpV #2, the entry reads droplet/nuclear area B-score, replicate 1 = 1.42; droplet/nuclear area B-score, replicate 2 = 1.91.
CG30121 (retired record) gave droplet/nuclear area B-score, replicate 1 = -1.07; droplet/nuclear area B-score, replicate 2 = -0.316.
After knock-down of CG17681, the record shows droplet/nuclear area B-score, replicate 1 = 0.871; droplet/nuclear area B-score, replicate 2 = 1.97.
Knock-down of RAF2 #1 gave: droplet/nuclear area B-score, replicate 1 = 0.232; droplet/nuclear area B-score, replicate 2 = -1.06; droplet/nuclear area B-score, replicate 3 = 0.347.
Against RAF2 #2 the deposit lists droplet/nuclear area B-score, replicate 1 = -1.33; droplet/nuclear area B-score, replicate 2 = -0.113.
Knock-down of CG10205 gave: droplet/nuclear area B-score, replicate 1 = 4.63; droplet/nuclear area B-score, replicate 2 = 0.956.
With knock-down of Six4 the results were droplet/nuclear area B-score, replicate 1 = -1.12; droplet/nuclear area B-score, replicate 2 = 0.627.
Ir7d scored droplet/nuclear area B-score, replicate 1 = 1.68; droplet/nuclear area B-score, replicate 2 = 0.811.
After knock-down of RpL4, the record shows droplet/nuclear area B-score, replicate 1 = 3.12; droplet/nuclear area B-score, replicate 2 = 4.98.
dve showed droplet/nuclear area B-score, replicate 1 = 2.43; droplet/nuclear area B-score, replicate 2 = -0.509.
For Dgkepsilon, the values are droplet/nuclear area B-score, replicate 1 = 1.01; droplet/nuclear area B-score, replicate 2 = 1.31.
Knock-down of Gpat4 resulted in: droplet/nuclear area B-score, replicate 1 = -0.798; droplet/nuclear area B-score, replicate 2 = -4.31.
Knock-down of CG31937 resulted in: droplet/nuclear area B-score, replicate 1 = -0.534; droplet/nuclear area B-score, replicate 2 = 0.969.
After knock-down of sut4 the results were droplet/nuclear area B-score, replicate 1 = -0.0221; droplet/nuclear area B-score, replicate 2 = -1.16.

A portion of the results above, for reference:
dnd → droplet/nuclear area B-score, replicate 1: -1.13; droplet/nuclear area B-score, replicate 2: -0.587
CG12209 → droplet/nuclear area B-score, replicate 1: -0.736; droplet/nuclear area B-score, replicate 2: 0.0506
CG33299 → droplet/nuclear area B-score, replicate 1: 0.576; droplet/nuclear area B-score, replicate 2: 2

Continued.
CG9132 showed droplet/nuclear area B-score, replicate 1 = -0.966; droplet/nuclear area B-score, replicate 2 = -1.83.
Hyccin gave droplet/nuclear area B-score, replicate 1 = -1.3; droplet/nuclear area B-score, replicate 2 = -2.17.
Depletion of CG9171 #1 came out at: droplet/nuclear area B-score, replicate 1 = 0.0902; droplet/nuclear area B-score, replicate 2 = 0.159.
CG9171 #2 showed droplet/nuclear area B-score, replicate 1 = -0.0996; droplet/nuclear area B-score, replicate 2 = -0.863.
For Alp5, the entry reads droplet/nuclear area B-score, replicate 1 = -1.73; droplet/nuclear area B-score, replicate 2 = -0.0964.
CG6142 showed droplet/nuclear area B-score, replicate 1 = -0.853; droplet/nuclear area B-score, replicate 2 = 0.645.
Depletion of CG3515 came out at: droplet/nuclear area B-score, replicate 1 = -1.23; droplet/nuclear area B-score, replicate 2 = -0.812.
Exn #1 scored droplet/nuclear area B-score, replicate 1 = -0.135; droplet/nuclear area B-score, replicate 2 = 0.924; droplet/nuclear area B-score, replicate 3 = 0.791.
For Exn #2, the entry reads droplet/nuclear area B-score, replicate 1 = -0.941; droplet/nuclear area B-score, replicate 2 = 0.0507.
Silencing of LysS gave: droplet/nuclear area B-score, replicate 1 = 1.09; droplet/nuclear area B-score, replicate 2 = 0.192.
Against MME1 the deposit lists droplet/nuclear area B-score, replicate 1 = 0.252; droplet/nuclear area B-score, replicate 2 = -0.439.
For mio #1 the deposit lists droplet/nuclear area B-score, replicate 1 = -0.739; droplet/nuclear area B-score, replicate 2 = -0.117.
With knock-down of mio #2, the screen gave droplet/nuclear area B-score, replicate 1 = 3.16; droplet/nuclear area B-score, replicate 2 = -0.0454.
With knock-down of TTLL4B, the screen gave droplet/nuclear area B-score, replicate 1 = -0.639; droplet/nuclear area B-score, replicate 2 = -1.53.
After knock-down of Galphao the results were droplet/nuclear area B-score, replicate 1 = -0.00919; droplet/nuclear area B-score, replicate 2 = -0.981.
With knock-down of dib the results were droplet/nuclear area B-score, replicate 1 = -0.646; droplet/nuclear area B-score, replicate 2 = 2.53.
Depletion of Lfg resulted in: droplet/nuclear area B-score, replicate 1 = -1.03; droplet/nuclear area B-score, replicate 2 = -0.493.
CG9592 scored droplet/nuclear area B-score, replicate 1 = 0; droplet/nuclear area B-score, replicate 2 = -0.0206.
CG14269 gave droplet/nuclear area B-score, replicate 1 = 0.38; droplet/nuclear area B-score, replicate 2 = 1.08.
After knock-down of c-cup, the screen gave droplet/nuclear area B-score, replicate 1 = 0.0375; droplet/nuclear area B-score, replicate 2 = -0.0347.
Knock-down of Or13a gave: droplet/nuclear area B-score, replicate 2 = 0.291.
Against CG14435 #1 the deposit lists droplet/nuclear area B-score, replicate 1 = 0.319; droplet/nuclear area B-score, replicate 2 = -1.7.
Against CG14435 #2 the deposit lists droplet/nuclear area B-score, replicate 1 = -0.757; droplet/nuclear area B-score, replicate 2 = -0.813.
For Polr2L, the entry reads droplet/nuclear area B-score, replicate 1 = 1.91; droplet/nuclear area B-score, replicate 2 = -0.0558.
Against CG8907, the entry reads droplet/nuclear area B-score, replicate 1 = 5.36; droplet/nuclear area B-score, replicate 2 = 0.229.
Depletion of CG10182 came out at: droplet/nuclear area B-score, replicate 1 = 1.74; droplet/nuclear area B-score, replicate 2 = 0.326.
